Measured values from article PMC4989169.

Molecular target: T1, active MASP-3cf (catalytic fragment of active MASP-3 containing the CCP1-CCP2-SP domains) (human) (UniProt P48740)
T1 sequence: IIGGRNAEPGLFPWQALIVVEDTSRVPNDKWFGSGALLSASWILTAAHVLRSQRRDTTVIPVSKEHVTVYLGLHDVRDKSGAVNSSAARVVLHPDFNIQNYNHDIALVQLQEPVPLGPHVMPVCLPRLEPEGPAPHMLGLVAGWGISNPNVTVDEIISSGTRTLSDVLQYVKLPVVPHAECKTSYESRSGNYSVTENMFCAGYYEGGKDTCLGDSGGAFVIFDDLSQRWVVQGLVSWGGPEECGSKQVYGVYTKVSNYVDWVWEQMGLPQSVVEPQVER
Assay: enzyme inhibition assay (equilibrium KI from residual activity, photometric); enzymes co-incubated with serial dilutions of the inhibitors for 2 h at room temperature; 20 mM HEPES, 145 mM NaCl, 5 mM CaCl2, 0.05% Triton X-100, pH 7.5; Z-Lys-SBzl substrate, read at 410 nm; both purified

binding: no binding
Substance: wild-type TFPI-D2 (second domain of human Tissue Factor Pathway Inhibitor-1) (domain or fragment)

Results are given in words; binding and its absence hold for the method and conditions named.
